Data source: PubChem BioAssay AID1159584 (Peter MacCallum Cancer Centre, 2016)
In all, the deposit lists about 18,000 reagents; below is a part drawn at random. Not all columns of the deposit are shown. No sequences are given here. Not stated in the record: the amount of reagent, the time to read-out.

Assay: 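Knock-downs that harm CDH1-null cells more than parental MCF10A cells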 (primary screen)
System: human MCF10A breast epithelial cells, parental and CDH1-null
Reagent: siRNA against human genes
Detection: 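ATP luminescence (CellTiter-Glo) viability per line relative to mean mock wells over all plates, and the ratio of CDH1-null to parental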
Scale: CDH1-null / parental viability ratio: higher = CDH1-null cells survive relatively better than parental; CDH1-null viability vs mock: higher = more viable CDH1-null cells
Units: CDH1-null viability vs mock in fraction of mock

MPI → CDH1-null / parental viability ratio: 1.22; CDH1-null viability vs mock: 1.12
GRIA3 → CDH1-null / parental viability ratio: 1.22; CDH1-null viability vs mock: 0.98
ACSM5 → CDH1-null / parental viability ratio: 0.96; CDH1-null viability vs mock: 0.73
PLA2G15 → CDH1-null / parental viability ratio: 0.89; CDH1-null viability vs mock: 0.99
CENPC → CDH1-null / parental viability ratio: 1.19; CDH1-null viability vs mock: 0.62
OR2K2 → CDH1-null / parental viability ratio: 1.46; CDH1-null viability vs mock: 0.7
TMSB4XP8 → CDH1-null / parental viability ratio: 0.99; CDH1-null viability vs mock: 1.02
ATL3 → CDH1-null / parental viability ratio: 0.65; CDH1-null viability vs mock: 0.44
MAGEB6 → CDH1-null / parental viability ratio: 0.85; CDH1-null viability vs mock: 0.46
SLC30A2 → CDH1-null / parental viability ratio: 1.28; CDH1-null viability vs mock: 0.73
QKI → CDH1-null / parental viability ratio: 0.94; CDH1-null viability vs mock: 0.73
ADGRF1 → CDH1-null / parental viability ratio: 1.37; CDH1-null viability vs mock: 1.07
R3HDM1 → CDH1-null / parental viability ratio: 0.83; CDH1-null viability vs mock: 0.48
ARMC9 → CDH1-null / parental viability ratio: 1.1; CDH1-null viability vs mock: 0.92
DLX5 → CDH1-null / parental viability ratio: 1.06; CDH1-null viability vs mock: 1
ATP6V0C → CDH1-null / parental viability ratio: 1.22; CDH1-null viability vs mock: 0.66
TSPO2 → CDH1-null / parental viability ratio: 0.95; CDH1-null viability vs mock: 0.72
SLC32A1 → CDH1-null / parental viability ratio: 0.8; CDH1-null viability vs mock: 0.72
PSAPL1 → CDH1-null / parental viability ratio: 1; CDH1-null viability vs mock: 0.78
RSU1 → CDH1-null / parental viability ratio: 1.04; CDH1-null viability vs mock: 0.75
SH3GL2 → CDH1-null / parental viability ratio: 0.92; CDH1-null viability vs mock: 1
ZNF226 → CDH1-null / parental viability ratio: 1.09; CDH1-null viability vs mock: 0.7
CDH26 → CDH1-null / parental viability ratio: 0.82; CDH1-null viability vs mock: 0.56
BAG3 → CDH1-null / parental viability ratio: 0.98; CDH1-null viability vs mock: 1
MAGI2 → CDH1-null / parental viability ratio: 1.01; CDH1-null viability vs mock: 0.89
PRDM4 → CDH1-null / parental viability ratio: 1.02; CDH1-null viability vs mock: 0.84
NHLRC1 → CDH1-null / parental viability ratio: 0.83; CDH1-null viability vs mock: 0.44
MEST → CDH1-null / parental viability ratio: 1.15; CDH1-null viability vs mock: 0.94
VPS11 → CDH1-null / parental viability ratio: 0.6; CDH1-null viability vs mock: 0.18
NSDHL → CDH1-null / parental viability ratio: 0.56; CDH1-null viability vs mock: 0.32
ERN1 → CDH1-null / parental viability ratio: 1.03; CDH1-null viability vs mock: 0.68
PCDHGC5 → CDH1-null / parental viability ratio: 0.95; CDH1-null viability vs mock: 0.59
BBC3 → CDH1-null / parental viability ratio: 0.81; CDH1-null viability vs mock: 0.52
NEDD4 → CDH1-null / parental viability ratio: 1.27; CDH1-null viability vs mock: 0.84
ADI1 → CDH1-null / parental viability ratio: 1.15; CDH1-null viability vs mock: 0.92

No new results follow: an excerpt of the list.
MAGEB6 → CDH1-null / parental viability ratio: 0.85; CDH1-null viability vs mock: 0.46
SLC30A2 → CDH1-null / parental viability ratio: 1.28; CDH1-null viability vs mock: 0.73
